Data: article PMC6726247

Sequences of proteins named here, by UniProt entry; tags and fusion partners are left off.
UniProt Q9CWH6: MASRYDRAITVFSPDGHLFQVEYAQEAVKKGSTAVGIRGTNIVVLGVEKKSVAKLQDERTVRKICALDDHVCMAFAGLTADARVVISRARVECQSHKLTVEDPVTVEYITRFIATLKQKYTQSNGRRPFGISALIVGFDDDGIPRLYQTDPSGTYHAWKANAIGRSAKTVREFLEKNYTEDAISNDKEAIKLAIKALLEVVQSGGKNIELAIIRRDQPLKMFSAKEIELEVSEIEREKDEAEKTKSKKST

Biological target: PSMA8 (testis-specific proteasomal subunit α4s), endogenous (mouse (endogenous in testis)) (UniProt Q9CWH6)
Assay: affinity purification with mass spectrometry; anti-PSMA8 antibodies R1 and R2 (detect PSMA7/8) bound to sepharose beads; 20 mg wild-type mouse testis extract in 50mM Tris HCl (pH8), 500mM NaCl, 1mM EDTA, 1% tritonX-100, o/n; buffer lacking ATP and glycerol; eluted in 100 mM glycine pH3

binding: binds
B1: TRIM36 (protein, UniProt Q80WG7 1-729)
chain: MSESEEISEFGYIMELLAKGKVTIKNIEKELICPACKELFTHPLILPCQHSVCHKCVKELLLSLDDSFNDVASDSSNQSSPRLRLTSPSMDKIDKINRPGWKRNSLTPRPTTFPCPGCEHDVDLGERGVSGLFRNFTLETIVERYRQAARAATAIMCDLCKPPPQESTKSCMDCSASYCNECFKIYHPWGTVKAQHEYVGPTTNFRPKVLMCPEHETERINMYCELCRRPVCHLCKLGGNHSNHRVTTMSSAYKTLKEKLSKDIDFLIGKESQVKSQISELNLLMKETECNGERAKEEALAHFEKLFEILEDRKSSVLKAIDASKKLRLDKFHTQMEEYQGLLENNGLVGYAQEVLKETDQSCFVQTAKQLHLRIQKATESLKSFRPAAQASFEDYVVNISKQTEVLGELSFFSSGIDIPEINEEQSKVYNNALIDWHHPEKDKADSYVLEYRKINRDEEMISWNEIEVHGTSKVVSNLESNSPYAFRVRAYRGSICSPCSRELILHTPPAPVFSFLFDEKCGYNTEHLLLNLKRDRVESRAGFNVLLAAERIQVGHYTSLDYIIGDVGVTKGKHFWACRVEPYSYLVKVGVASSDKLQEWLRSPRDAASPRYEQDSGHDSGSEDACFDSSQPFTLVTIGMKKFFIPKSPTSSNEPENRVLPMPTSIGIFLDCDKGKVSFYDMDHMKCLYERQVDCSHTMYPAFALMGSGGIQLEEAITAKYLEYEEDV

No constants are given. Whether binding was seen depends on the method and setting. In cells and extracts the contact can be indirect. These calls come from enrichment with a bait or labelling near it, and not all partners need be listed.
